Reference: patent publication US20230310634A1, “ANTI-HUMAN VISTA ANTIBODIES AND USE THEREOF” (IMMUNEXT, INC., priority 2020, published 2023)
Some of these results come from one statement about several compounds together.

System: FKBP5
Assay: FKBP5 transcription in peritoneal resident macrophages 4 days post ADC dosing (LPS study)
Type: in vivo, mice
Conditions: 0.2 mg/Kg of GC payload

Structure (SMILES) | pharmacodynamic range (GC reporter FKBP5 expression)
C[C@]12C=CC(=O)C=C1CC[C@@H]1[C@@H]2[C@@H](O)C[C@@]2(C)[C@H]1C[C@H]1O[C@@H](c3ccc(Cc4cccc(NC(=O)[C@H](CCC(=O)O)NC(=O)CNC(=O)CBr)c4)cc3)O[C@]12C(=O)CO [INX J, (S)-4-(2-(2-bromoacetamido)acetamido)-5-((3-(4-((6aR,6bS,7S,8aS,8bS,10R,11aR,12aS,12bS)-7-hydroxy-8b-(2-hydroxyacetyl)-6a,8a-dimethyl-4-oxo-2,4,6a,6b,7,8,8a,8b,11a,12,12a,12b-dodecahydro-1H-naphtho[2′,1′:4,5]indeno[1,2-d][1,3]dioxol-10-yl)benzyl)phenyl)amino)-5-oxopentanoic acid, reference compound] | at least 4 days
C[C@]12C=CC(=O)C=C1CC[C@@H]1[C@@H]2[C@@H](O)C[C@@]2(C)[C@H]1C[C@H]1O[C@@H](c3ccc(CC45CC(NC(=O)[C@H](CCC(=O)O)NC(=O)CNC(=O)CBr)(C4)C5)cc3)O[C@]12C(=O)CO [INX P, (S)-4-(2-(2-bromoacetamido)acetamido)-5-((3-(4-((6aR,6bS,7S,8aS,8bS,10R,11 aR,12aS,12bS)-7-hydroxy-8b-(2-hydroxyacetyl)-6a,8a-dimethyl-4-oxo-2,4,6a,6b,7,8,8a,8b,11a,12,12a,12b-dodecahydro-1H-naphtho[2′,1′:4,5]indeno[1,2-d][1,3]dioxol-10-yl)benzyl)bicycle[1.1.1]pentan-1-yl)amino)-5-oxopentanoic acid] | at least 4 days
C[C@]12C=CC(=O)C=C1CC[C@@H]1[C@@H]2[C@@H](O)C[C@@]2(C)[C@H]1C[C@H]1O[C@@H](c3ccc(CC4CC5(C4)CC(NC(=O)[C@H](CCC(=O)O)NC(=O)CNC(=O)CBr)C5)cc3)O[C@]12C(=O)CO (stereo partly drawn) [INX V, (S)-4-(2-(2-bromoacetamido)acetamido)-5-((6-(4-((6aR,6bS,7S,8aS,8bS,10R,11 aR,12aS,12bS)-7-hydroxy-8b-(2-hydroxyacetyl)-6a,8a-dimethyl-4-oxo-2,4,6a,6b,7,8,8a,8b,11a,12,12a,12b-dodecahydro-1H-naphtho[2′,1′:4,5]indeno[1,2-d][1,3]dioxol-10-yl)benzyl)spiro[3.3]heptan-2-yl)amino)-5-oxopentanoic acid] | at least 4 days
